# According to PubChem BioAssay AID1487 (National Center for Advancing Translational Sciences (NCATS), 2009):
# This is one part of the list. Further columns of the screen follow, without active or inactive calls. Most of these compounds were active or inconclusive in the main read-out, so they are no random draw. Words in brackets tell the shape of the fitted curve; partial curves, single points and poor fits give uncertain potencies.
# Experiment: qHTS Assay for Modulators of Lamin A Splicing
# Settings: HeLa LMNA splicing GFP/RFP minigene ratio, 48 h
# Outline: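 S3 HeLa stable clones carrying a lamin A-EGFP splicing minigene plus DsRed2 were seeded at 600 cells/well in Opti-MEM with 2% FBS, pin-dosed and incubated 48 h at 37°C. Acumen cytometry (488 nm) gave the GFP/RFP total-intensity ratio.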
# [1] = measured here: GFP splicing reporter channel
# [2] = measured here: RFP viability control channel
Compound,AC50 [1],AC50 [2]
C/C(=N\NC(N)=S)C1C2C3CC4C5CC(C42)C1C53 (centres undefined),"0.794 µM [rising, full curve, poor fit]",
Cc1noc(C)c1-c1nc(CSc2ccc(Cl)cc2)no1,"0.112 µM [falling, full curve]","0.0398 µM [falling, full curve]"
CCc1ccc(NC(=O)c2ccc(F)c(S(=O)(=O)NCCc3ccc(OC)c(OC)c3)c2)cc1,"11.2 µM [falling, single point]","15.8 µM [falling, single point]"
Cc1cc(C)c2nc(SCC(=O)N(C)C3CCS(=O)(=O)C3)cc(C)c2c1 (centres undefined),"0.0112 µM [falling, full curve, poor fit]","0.00447 µM [falling, full curve, poor fit]"
FC(F)(F)c1nnc2c(Sc3ccccc3)nc3ccc(Cl)cc3n12,"5.01 µM [falling, full curve, poor fit]","2 µM [falling, full curve, poor fit]"
Oc1cccc2ccc[n+](CC(O)Cn3c4ccccc4c4ccccc43)c12 (centres undefined),,"8.91 µM [rising, partial curve]"
COc1ccc(-c2[nH]c(-c3ccc4c(c3)OCO4)nc2-c2ccccc2)cc1,"10 µM [falling, partial curve]","11.2 µM [falling, single point]"
O=c1[nH]c(/C=C/c2cccc3ccccc23)nc2ccccc12,,"0.282 µM [falling, partial curve, poor fit]"
CC(=O)c1ccc2c(c1)N(CCCN1CCC(CCO)CC1)c1ccccc1S2,"0.000891 µM [falling, full curve, poor fit]",
Cc1ccc(OCC(=O)N/N=C\c2ccc(O)cc2)c([N+](=O)[O-])c1,,"5.01 µM [falling, partial curve, poor fit]"
CCCCCCN1C=CC(=C/C=C(\C#N)C(=O)OCC)C=C1,"35.5 µM [falling, single point]","12.6 µM [falling, partial curve]"
C=CCc1c(C)nc(SC)nc1Nc1ccccc1,,"35.5 µM [rising, single point]"
CC(C)CCNc1ncnc2c1cnn2-c1cccc(Cl)c1,,"31.6 µM [rising, single point]"
O=C(c1cc2cc(Br)ccc2o1)N1CCCCC1,,"6.31 µM [rising, single point]"
C=C(C)Cn1c(-c2ccccc2)nc2ccccc21,,"15.8 µM [rising, single point]"
COc1cc(-c2nnc(SCC(=O)N3c4ccccc4Sc4ccccc43)o2)cc(OC)c1OC,,"2.24 µM [rising, full curve, poor fit]"
COCCNC(=O)C(=O)NCC(c1cccnc1)N1CCN(c2ccccc2)CC1 (centres undefined),"0.02 µM [falling, full curve, poor fit]",
Cc1ccc(/C=N/N2CCOCC2)s1,,"35.5 µM [rising, single point]"

Compound,AC50 [1],AC50 [2]
Cc1nn(-c2ccccc2)c2c1/C(=N/O)CC(C)(C)C2,,"15.8 µM [rising, single point]"
CC(=O)c1cccc(NC(=O)N2CCC(CN3CCCCC3)CC2)c1,"0.0316 µM [falling, full curve]","0.0316 µM [falling, full curve]"
CCCNC(=O)c1c(N)n(-c2ccc(S(N)(=O)=O)cc2)c2nc3ccccc3nc12,,"0.501 µM [rising, full curve, poor fit]"
COc1ccc2c(C#N)c3ccccn3c2c1,,"0.00447 µM [falling, full curve, poor fit]"
CO[C@@]1(NC(=O)Cc2cccs2)C(=O)N2C(C(=O)O)=C(COC(N)=O)CS[C@@H]21,"7.94 µM [rising, partial curve, poor fit]",
O=c1oc2c(CN3CCOCC3)c(O)c(Cl)cc2c2c1CCCC2,"2.24 µM [rising, partial curve, poor fit]","35.5 µM [rising, single point]"
COc1cccc(NC(=O)c2cc(-c3cccnc3)nc3c(Cl)cccc23)c1,"22.4 µM [falling, single point]","25.1 µM [falling, single point]"
C=CCNC(=O)C1CCN(S(=O)(=O)c2ccc(Br)cc2)CC1,"6.31 µM [rising, full curve, poor fit]",
CC1(C)CC(=O)c2c(O)c(-c3ccccc3)c(=O)n(-c3ccccc3)c2C1,"35.5 µM [rising, single point]","35.5 µM [rising, single point]"
O=C1C(Cl)=C(N2CCN(c3ccccc3[N+](=O)[O-])CC2)C(=O)c2ccccc21,"35.5 µM [falling, single point]",
Cc1cnc(NC(=O)CSc2c(Cl)cccc2Cl)s1,,"22.4 µM [rising, single point]"
N#Cc1cccc(-c2nccc(NCc3cccnc3)n2)c1,"7.94 µM [falling, partial curve]",
Cc1ccc(/C=C/C2=Cc3c(sc(NC(=O)CSc4n[nH]c(N)n4)c3C#N)C(C)(C)C2)o1,"35.5 µM [falling, single point]","11.2 µM [falling, partial curve]"
CCNC(=O)CON=C1c2ccccc2-c2ccccc21,"15.8 µM [rising, partial curve]","0.282 µM [rising, partial curve, poor fit]"
CC(C)(C)NS(=O)(=O)c1ccc(CCC(=O)N2CCCC2)cc1,,"0.251 µM [falling, full curve]"
CCCC(=O)Nc1sc2c(c1C(=O)OCC)CC(C)(C)OC2,"11.2 µM [falling, partial curve]","35.5 µM [falling, single point]"
CCc1ccc(S(=O)(=O)NCCc2csc(-c3ccccc3)n2)s1,,"4.47 µM [rising, partial curve]"
CC1CCCCN1C(=O)CN1CCC(c2nc3ccc(Cl)cc3[nH]2)CC1 (centres undefined),"1.58 µM [falling, partial curve]",

# Retrieved by compound from the list above:
Compound,AC50 [1],AC50 [2]
CCc1ccc(S(=O)(=O)NCCc2csc(-c3ccccc3)n2)s1,,"4.47 µM [rising, partial curve]"
Cc1cnc(NC(=O)CSc2c(Cl)cccc2Cl)s1,,"22.4 µM [rising, single point]"
C=CCNC(=O)C1CCN(S(=O)(=O)c2ccc(Br)cc2)CC1,"6.31 µM [rising, full curve, poor fit]",
